Measured values: patent US10960084B2, “Modulation of fluid intake” (California Institute of Technology, priority 2018, dated 2021)

Test: Plasma Na+ and osmolality measurements
Type: in vivo, mice
Details: after injection of 300 μL 2M Mannitol

## OC[C@@H](O)[C@@H](O)[C@H](O)[C@H](O)CO [Mannitol]
  plasma Na+ concentration: but not Na+ concentration was increased
  plasma osmolality: increased
